Results reported in the supplement of paper PMC10382679.
Single values of this set are uncertain.

B1: Rpb7; numbered along this chain (parent)
chain: MFFIKDLSLNITLHPSFFGPRMKQYLKTKLLEEVEGSCTGKFGYILCVLDYDNIDIQRGRILPTDGSAEFNVKYRAVVFKPFKGEVVDGTVVSCSQHGFEVQVGPMKVFVTKHLMPQDLTFNAGSNPPSYQSSEDVITIKSRIRVKIEGCISQVSSIHAIGSIKEDYLGAI

How the values were obtained:
[1] = variants of: B1; experiment: log2 fold change of mutant abundance, UV-irradiated vs unirradiated; higher = more UV resistant (enriched after UV); details: with Saccharomyces cerevisiae rad7Δ rad26Δ; UV dose (J/m2): 10; genetic background: rad7Δ rad26Δ rpb7Δ + plasmid RPB7 library; outgrowth: 10 cell divisions
[2] = variants of: B1; experiment: NOISeq theta enrichment statistic, UV-irradiated vs unirradiated (dimensionless); higher = more UV resistant (enriched after UV); details: with Saccharomyces cerevisiae rad7Δ rad26Δ; UV dose (J/m2): 10; genetic background: rad7Δ rad26Δ rpb7Δ + plasmid RPB7 library; outgrowth: 10 cell divisions

Variant: MFFIKDLSLNITLHPSFFGPRMKQYLKTKLLEEVEGSCTGKFGYILCVLDYDNIDIQRGRILPTDGSAEFNVKYRAVVFKPFKGEVVDGTVVCCSQHGFEVQVGPMKVFVTKHLMPQDLTFNAGSNPPSYQSSEDVITIKSRIRVKIEGCISQVSSIHAIGSIKEDYLGAI [S93C]
- log2 fold change of mutant abundance [1]: 0.391
- NOISeq theta enrichment statistic [2]: 0.288

Variant: MFFIKDLSLNITLHPSFFGPRMKQYLKTKLLEEVEGSCTGKFGYILCVLDYDNIDIQRGRILPTDGSAEFNVKYRAVVFKPFKGEVVDGTVVDCSQHGFEVQVGPMKVFVTKHLMPQDLTFNAGSNPPSYQSSEDVITIKSRIRVKIEGCISQVSSIHAIGSIKEDYLGAI [S93D]
- log2 fold change of mutant abundance [1]: -0.295
- NOISeq theta enrichment statistic [2]: -0.21

Variant: MFFIKDLSLNITLHPSFFGPRMKQYLKTKLLEEVEGSCTGKFGYILCVLDYDNIDIQRGRILPTDGSAEFNVKYRAVVFKPFKGEVVDGTVVECSQHGFEVQVGPMKVFVTKHLMPQDLTFNAGSNPPSYQSSEDVITIKSRIRVKIEGCISQVSSIHAIGSIKEDYLGAI [S93E]
- log2 fold change of mutant abundance [1]: 0.105
- NOISeq theta enrichment statistic [2]: 0.131

Variant: MFFIKDLSLNITLHPSFFGPRMKQYLKTKLLEEVEGSCTGKFGYILCVLDYDNIDIQRGRILPTDGSAEFNVKYRAVVFKPFKGEVVDGTVVFCSQHGFEVQVGPMKVFVTKHLMPQDLTFNAGSNPPSYQSSEDVITIKSRIRVKIEGCISQVSSIHAIGSIKEDYLGAI [S93F]
- log2 fold change of mutant abundance [1]: 0.102
- NOISeq theta enrichment statistic [2]: 0.116

Variant: MFFIKDLSLNITLHPSFFGPRMKQYLKTKLLEEVEGSCTGKFGYILCVLDYDNIDIQRGRILPTDGSAEFNVKYRAVVFKPFKGEVVDGTVVGCSQHGFEVQVGPMKVFVTKHLMPQDLTFNAGSNPPSYQSSEDVITIKSRIRVKIEGCISQVSSIHAIGSIKEDYLGAI [S93G]
- log2 fold change of mutant abundance [1]: -0.327
- NOISeq theta enrichment statistic [2]: -0.239

Variant: MFFIKDLSLNITLHPSFFGPRMKQYLKTKLLEEVEGSCTGKFGYILCVLDYDNIDIQRGRILPTDGSAEFNVKYRAVVFKPFKGEVVDGTVVHCSQHGFEVQVGPMKVFVTKHLMPQDLTFNAGSNPPSYQSSEDVITIKSRIRVKIEGCISQVSSIHAIGSIKEDYLGAI [S93H]
- log2 fold change of mutant abundance [1]: -0.0521
- NOISeq theta enrichment statistic [2]: -0.0588

Variant: MFFIKDLSLNITLHPSFFGPRMKQYLKTKLLEEVEGSCTGKFGYILCVLDYDNIDIQRGRILPTDGSAEFNVKYRAVVFKPFKGEVVDGTVVICSQHGFEVQVGPMKVFVTKHLMPQDLTFNAGSNPPSYQSSEDVITIKSRIRVKIEGCISQVSSIHAIGSIKEDYLGAI [S93I]
- log2 fold change of mutant abundance [1]: -0.0485
- NOISeq theta enrichment statistic [2]: -0.0473

Variant: MFFIKDLSLNITLHPSFFGPRMKQYLKTKLLEEVEGSCTGKFGYILCVLDYDNIDIQRGRILPTDGSAEFNVKYRAVVFKPFKGEVVDGTVVKCSQHGFEVQVGPMKVFVTKHLMPQDLTFNAGSNPPSYQSSEDVITIKSRIRVKIEGCISQVSSIHAIGSIKEDYLGAI [S93K]
- log2 fold change of mutant abundance [1]: -0.173
- NOISeq theta enrichment statistic [2]: -0.221

Variant: MFFIKDLSLNITLHPSFFGPRMKQYLKTKLLEEVEGSCTGKFGYILCVLDYDNIDIQRGRILPTDGSAEFNVKYRAVVFKPFKGEVVDGTVVLCSQHGFEVQVGPMKVFVTKHLMPQDLTFNAGSNPPSYQSSEDVITIKSRIRVKIEGCISQVSSIHAIGSIKEDYLGAI [S93L]
- log2 fold change of mutant abundance [1]: -0.0693
- NOISeq theta enrichment statistic [2]: -0.239

Variant: MFFIKDLSLNITLHPSFFGPRMKQYLKTKLLEEVEGSCTGKFGYILCVLDYDNIDIQRGRILPTDGSAEFNVKYRAVVFKPFKGEVVDGTVVNCSQHGFEVQVGPMKVFVTKHLMPQDLTFNAGSNPPSYQSSEDVITIKSRIRVKIEGCISQVSSIHAIGSIKEDYLGAI [S93N]
- log2 fold change of mutant abundance [1]: -0.188
- NOISeq theta enrichment statistic [2]: -0.171

Variant: MFFIKDLSLNITLHPSFFGPRMKQYLKTKLLEEVEGSCTGKFGYILCVLDYDNIDIQRGRILPTDGSAEFNVKYRAVVFKPFKGEVVDGTVVPCSQHGFEVQVGPMKVFVTKHLMPQDLTFNAGSNPPSYQSSEDVITIKSRIRVKIEGCISQVSSIHAIGSIKEDYLGAI [S93P]
- log2 fold change of mutant abundance [1]: 0.00476
- NOISeq theta enrichment statistic [2]: 0.0101

Variant: MFFIKDLSLNITLHPSFFGPRMKQYLKTKLLEEVEGSCTGKFGYILCVLDYDNIDIQRGRILPTDGSAEFNVKYRAVVFKPFKGEVVDGTVVQCSQHGFEVQVGPMKVFVTKHLMPQDLTFNAGSNPPSYQSSEDVITIKSRIRVKIEGCISQVSSIHAIGSIKEDYLGAI [S93Q]
- log2 fold change of mutant abundance [1]: -0.0994
- NOISeq theta enrichment statistic [2]: -0.123

Variant: MFFIKDLSLNITLHPSFFGPRMKQYLKTKLLEEVEGSCTGKFGYILCVLDYDNIDIQRGRILPTDGSAEFNVKYRAVVFKPFKGEVVDGTVVRCSQHGFEVQVGPMKVFVTKHLMPQDLTFNAGSNPPSYQSSEDVITIKSRIRVKIEGCISQVSSIHAIGSIKEDYLGAI [S93R]
- log2 fold change of mutant abundance [1]: -0.0299
- NOISeq theta enrichment statistic [2]: -0.0232

Variant: MFFIKDLSLNITLHPSFFGPRMKQYLKTKLLEEVEGSCTGKFGYILCVLDYDNIDIQRGRILPTDGSAEFNVKYRAVVFKPFKGEVVDGTVVTCSQHGFEVQVGPMKVFVTKHLMPQDLTFNAGSNPPSYQSSEDVITIKSRIRVKIEGCISQVSSIHAIGSIKEDYLGAI [S93T]
- log2 fold change of mutant abundance [1]: -0.0473
- NOISeq theta enrichment statistic [2]: -0.276

Variant: MFFIKDLSLNITLHPSFFGPRMKQYLKTKLLEEVEGSCTGKFGYILCVLDYDNIDIQRGRILPTDGSAEFNVKYRAVVFKPFKGEVVDGTVVVCSQHGFEVQVGPMKVFVTKHLMPQDLTFNAGSNPPSYQSSEDVITIKSRIRVKIEGCISQVSSIHAIGSIKEDYLGAI [S93V]
- log2 fold change of mutant abundance [1]: -0.0396
- NOISeq theta enrichment statistic [2]: -0.0444

Variant: MFFIKDLSLNITLHPSFFGPRMKQYLKTKLLEEVEGSCTGKFGYILCVLDYDNIDIQRGRILPTDGSAEFNVKYRAVVFKPFKGEVVDGTVVWCSQHGFEVQVGPMKVFVTKHLMPQDLTFNAGSNPPSYQSSEDVITIKSRIRVKIEGCISQVSSIHAIGSIKEDYLGAI [S93W]
- log2 fold change of mutant abundance [1]: -0.0972
- NOISeq theta enrichment statistic [2]: -0.0858

Variant: MFFIKDLSLNITLHPSFFGPRMKQYLKTKLLEEVEGSCTGKFGYILCVLDYDNIDIQRGRILPTDGSAEFNVKYRAVVFKPFKGEVVDGTVVYCSQHGFEVQVGPMKVFVTKHLMPQDLTFNAGSNPPSYQSSEDVITIKSRIRVKIEGCISQVSSIHAIGSIKEDYLGAI [S93Y]
- log2 fold change of mutant abundance [1]: -0.0257
- NOISeq theta enrichment statistic [2]: -0.0495
